The assay deals with T1, CLOCK (human (endogenous in U2OS)) (UniProt O15516).
T1 sequence: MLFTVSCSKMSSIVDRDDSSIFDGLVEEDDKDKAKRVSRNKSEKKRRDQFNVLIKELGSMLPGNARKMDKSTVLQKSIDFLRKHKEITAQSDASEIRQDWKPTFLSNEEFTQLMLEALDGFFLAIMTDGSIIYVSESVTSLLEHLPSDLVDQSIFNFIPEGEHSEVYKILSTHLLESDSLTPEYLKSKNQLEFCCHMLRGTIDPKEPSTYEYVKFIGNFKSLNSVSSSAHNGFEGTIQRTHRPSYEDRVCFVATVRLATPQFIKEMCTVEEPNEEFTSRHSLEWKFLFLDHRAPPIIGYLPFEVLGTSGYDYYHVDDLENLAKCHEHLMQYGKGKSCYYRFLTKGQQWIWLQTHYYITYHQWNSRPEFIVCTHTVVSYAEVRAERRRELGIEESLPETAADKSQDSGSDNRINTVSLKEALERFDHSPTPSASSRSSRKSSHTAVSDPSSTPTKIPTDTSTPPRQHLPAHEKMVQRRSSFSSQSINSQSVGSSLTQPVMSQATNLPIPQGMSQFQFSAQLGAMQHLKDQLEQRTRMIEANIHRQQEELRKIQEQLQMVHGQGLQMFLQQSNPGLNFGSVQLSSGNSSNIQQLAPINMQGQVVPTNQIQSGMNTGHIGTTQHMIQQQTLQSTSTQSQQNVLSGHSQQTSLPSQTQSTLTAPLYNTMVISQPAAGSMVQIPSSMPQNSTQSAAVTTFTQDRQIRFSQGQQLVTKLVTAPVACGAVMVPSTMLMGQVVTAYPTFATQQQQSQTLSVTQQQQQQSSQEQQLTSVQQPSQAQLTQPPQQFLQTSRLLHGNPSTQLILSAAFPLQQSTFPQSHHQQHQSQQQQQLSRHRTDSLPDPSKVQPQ
Briefly: co-IP; 1 µg rabbit anti-CLK IgG and Protein A DynaBeads with 500 µg total protein of U2OS lysate, 4 h at 4 °C; lysis buffer 10 mM Tris-Cl pH7.5, 100 mM NaCl, 5 mM EDTA, 1% Triton X-100, 0.05% SDS; 6 washes (150 mM NaCl, 0.4% Triton X-100, 0.05% SDS); immunoblot with mouse anti-BMAL1.

Protein sequences, listed by entry. Tags and fused reporters are not part of them. Lines headed by an entry give the natural chain unless they say otherwise; changes in a name come on top. Chains listed by the source or under a name are the forms on record and can include a tag or linker.
BMAL1 p.(Glu501Lys) (O00327-2, form named): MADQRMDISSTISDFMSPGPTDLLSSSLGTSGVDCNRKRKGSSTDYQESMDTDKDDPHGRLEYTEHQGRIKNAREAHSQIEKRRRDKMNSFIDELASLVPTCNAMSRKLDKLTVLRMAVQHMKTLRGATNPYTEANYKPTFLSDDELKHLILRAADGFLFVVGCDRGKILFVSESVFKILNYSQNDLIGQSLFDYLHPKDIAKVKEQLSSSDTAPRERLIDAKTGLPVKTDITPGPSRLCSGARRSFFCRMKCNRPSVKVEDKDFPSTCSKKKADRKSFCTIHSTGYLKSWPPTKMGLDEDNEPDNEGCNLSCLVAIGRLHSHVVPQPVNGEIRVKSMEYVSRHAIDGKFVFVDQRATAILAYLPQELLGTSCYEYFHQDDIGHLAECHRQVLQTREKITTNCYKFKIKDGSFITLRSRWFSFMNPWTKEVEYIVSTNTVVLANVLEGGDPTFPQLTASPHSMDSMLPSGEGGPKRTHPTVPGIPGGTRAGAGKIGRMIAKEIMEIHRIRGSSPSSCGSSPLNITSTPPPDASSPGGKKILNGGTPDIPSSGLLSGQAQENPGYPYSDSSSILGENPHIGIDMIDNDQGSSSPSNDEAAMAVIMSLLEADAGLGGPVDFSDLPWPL
BMAL1 p.(Gly68Arg) (O00327-2, form named): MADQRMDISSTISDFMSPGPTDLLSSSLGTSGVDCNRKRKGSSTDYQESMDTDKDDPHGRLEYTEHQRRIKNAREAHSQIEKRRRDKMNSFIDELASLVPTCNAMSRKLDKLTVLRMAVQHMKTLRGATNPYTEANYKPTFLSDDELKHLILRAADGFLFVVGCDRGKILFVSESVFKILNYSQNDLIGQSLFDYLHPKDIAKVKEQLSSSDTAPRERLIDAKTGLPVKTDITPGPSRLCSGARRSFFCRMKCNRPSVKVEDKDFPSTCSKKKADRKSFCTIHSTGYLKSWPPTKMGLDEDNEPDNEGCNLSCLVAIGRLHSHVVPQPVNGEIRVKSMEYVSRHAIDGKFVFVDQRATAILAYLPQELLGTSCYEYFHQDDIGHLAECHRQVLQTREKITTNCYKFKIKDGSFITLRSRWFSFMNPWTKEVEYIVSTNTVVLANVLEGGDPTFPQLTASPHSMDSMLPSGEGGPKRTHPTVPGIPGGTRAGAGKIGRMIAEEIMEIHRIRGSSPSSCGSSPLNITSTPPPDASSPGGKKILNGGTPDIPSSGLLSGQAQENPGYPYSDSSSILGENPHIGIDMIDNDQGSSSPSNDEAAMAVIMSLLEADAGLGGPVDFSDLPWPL
BMAL1 p.(Ile201Thr) (O00327-2, form named): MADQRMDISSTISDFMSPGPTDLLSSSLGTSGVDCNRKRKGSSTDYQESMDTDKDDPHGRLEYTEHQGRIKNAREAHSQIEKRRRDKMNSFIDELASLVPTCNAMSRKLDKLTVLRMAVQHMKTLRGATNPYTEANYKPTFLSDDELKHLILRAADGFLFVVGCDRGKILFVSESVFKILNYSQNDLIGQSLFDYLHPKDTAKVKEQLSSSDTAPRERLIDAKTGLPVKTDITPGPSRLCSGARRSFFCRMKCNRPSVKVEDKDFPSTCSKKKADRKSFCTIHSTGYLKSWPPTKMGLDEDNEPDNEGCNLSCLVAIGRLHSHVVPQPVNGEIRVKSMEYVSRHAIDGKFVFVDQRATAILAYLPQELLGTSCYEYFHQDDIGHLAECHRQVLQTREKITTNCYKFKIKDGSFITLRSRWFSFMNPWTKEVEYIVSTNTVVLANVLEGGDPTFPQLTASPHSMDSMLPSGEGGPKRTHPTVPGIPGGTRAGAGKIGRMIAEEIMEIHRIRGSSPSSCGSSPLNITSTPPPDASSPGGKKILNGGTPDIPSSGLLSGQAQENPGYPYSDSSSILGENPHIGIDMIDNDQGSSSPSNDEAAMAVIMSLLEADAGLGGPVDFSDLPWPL

Drawing on article PMC12337293, this text covers binding for four substances.

These are yes or no findings as the source states them, for the method shown. In cells and extracts the contact can be indirect. Some binding calls cover weakened binding; strength is not graded here.

Turning to “BMAL1 (wild type) (from UniProt O00327-2 1-626)”, the binding entry is “binds”. Regarding “BMAL1 p.(Glu501Lys) (from UniProt O00327-2 1-626)”, the binding entry is “binds”. For the substance “BMAL1 p.(Gly68Arg) (from UniProt O00327-2 1-626)”, the binding result is “binds”. “BMAL1 p.(Ile201Thr) (from UniProt O00327-2 1-626)”: the binding entry is recorded as “binds”.
